# Measurements reported in PubChem BioAssay AID493246 (Drosophila RNAi Screening Center, 2011).
# Aim: 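Genes fly cells need to grow and stay alive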 (primary screen)
# Cell system: Drosophila Kc and S2R+ cells
# Reagents: long dsRNA against Drosophila genes
# Measured: 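Cell number per well after knock-down, printed as raw plate values; calls were based on per-plate z-scores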
# Scale: Kc cell number and S2R+ cell number: higher = more cells remaining
# Rule for the call: 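Active when the per-plate z-score of cell number is 3 or more in the direction of fewer cells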
# The screen tested about 21,000 reagents; shown is a random part of those that have a named target and a result. In the full data, 429 (2%) got an active call. 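Values are raw and not normalised between plates; calls rest on per-plate z-scores that were not deposited.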 Not stated in the record: the amount of reagent, the time to read-out.
target gene,"Kc cell number, rep 1","Kc cell number, rep 2","S2R+ cell number, rep 1","S2R+ cell number, rep 2",Outcome
CG31538,1.38e6,1.49e6,1.07e6,1.19e6,inactive
syd,1.42e6,1.45e6,1.31e6,1.29e6,inactive
Dnaaf6,1.39e6,1.39e6,1.31e6,1.47e6,inactive
GstE4,1.54e6,1.59e6,1.08e6,1.29e6,inactive
CG11294,1.33e6,1.31e6,9.17e5,1.04e6,inactive
CG8568,1.55e6,1.61e6,1.07e6,1.28e6,inactive
Spn31A,1.47e6,1.50e6,1.27e6,1.37e6,inactive
CG7384,1.35e6,1.25e6,1.00e6,1.11e6,inactive
CG16753,1.38e6,1.42e6,1.21e6,1.05e6,inactive
CG9512,5.71e5,,8.34e5,,inactive
betaTry,1.39e6,1.68e6,1.03e6,1.13e6,inactive
Bap170,1.52e6,1.55e6,1.14e6,1.22e6,inactive
Ork1,5.70e5,,7.90e5,,inactive
CG3420,1.60e6,1.62e6,1.37e6,1.59e6,inactive
CG7912,1.53e6,1.60e6,1.10e6,1.20e6,inactive
P58IPK,1.76e6,1.78e6,1.38e6,1.50e6,inactive
CG30286,1.49e6,1.56e6,1.29e6,3.29e5,inactive
MAGE,1.58e6,1.64e6,1.33e6,1.35e6,inactive
Ref1,1.47e6,1.64e6,1.04e6,1.16e6,inactive
Muc68D,1.33e6,1.40e6,1.25e6,1.20e6,inactive
CG18171,1.23e6,1.33e6,1.08e6,1.31e6,inactive
CG8173,1.48e6,1.43e6,1.09e6,1.13e6,inactive
Cht5,1.63e6,1.54e6,1.33e6,1.31e6,inactive
RpL38,1.13e6,1.14e6,5.83e5,7.19e5,active
conu,1.55e6,1.51e6,9.86e5,1.15e6,inactive
Rsf1,1.40e6,1.50e6,1.26e6,1.36e6,inactive
CG7133,1.48e6,1.53e6,1.24e6,1.32e6,inactive
CG2611,1.32e6,1.43e6,1.10e6,1.12e6,inactive
CG2100,1.67e6,1.78e6,1.31e6,1.40e6,inactive
CG42361,1.50e6,1.57e6,1.29e6,1.45e6,inactive
MED20,1.69e6,1.77e6,1.00e6,1.14e6,inactive
CG13996,1.87e6,2.06e6,1.26e6,1.37e6,inactive
AOX2,1.45e6,1.44e6,1.06e6,1.19e6,inactive
nerfin-2,1.63e6,1.61e6,1.25e6,1.30e6,inactive
Jon65Aiv,1.39e6,1.41e6,1.11e6,1.20e6,inactive
dj-1beta,1.44e6,1.47e6,1.01e6,1.11e6,inactive
CG5439,1.38e6,1.45e6,1.25e6,1.26e6,inactive
JhI-21,1.32e6,1.41e6,1.22e6,1.25e6,inactive
CG15739,1.63e6,1.56e6,1.11e6,1.18e6,inactive
CG7557,1.41e6,1.49e6,1.21e6,1.16e6,inactive
